{
  "source": "paper PMC6581859",
  "molecules": {"B1": {"name": "CandA-N (protein, UniProt C8VP82 1-339)", "chain": "MGDRHTIQQNLNGLLSKLNDPDPDMRYMSLNDLYGILSNPCSSYLAHDQASATRLAEGLLKALDDQHGDVQNQALKCLGPLVARLPLEGLRTLLERLSNLTTSQTIDTSVPNTALRVIVTALPRPQPNQAPSPDANMAYSAVSEVLIPRLIGPGPHKRRGSVTKGMLEKDPAKGFSSDAIDVLIQVASCFGALLQESELTALEKAVMSIIDNDTAGTVVTKRALAAISALVVYFSDEQFGILVSELVERFNSPQLSTVHRRHLIAAVGCLARTVPAKFGPHLSTLAPFIFSAVGEDNLEVSHVLHYLCTSASNVYSSRNKPKIYHQYRQLPKEKLITGM"}, "B2": {"name": "CandA-C (protein, UniProt Q5BAH2 1-1041)", "chain": "MSSDAMSDYSHDDEHDPQTDELRETALVTLEALISSCSSQMQSYLPNTINSALRFLKYDPNVADMGEDEEMSGTQDDGSEDDVTEEPDLEDDDFEDFEEEGGYSDIDDMSWKVRRCAAKLLYAVISTYGRGRALDDTSLYQQIAPAIVARFNKEREESVKLELVSTMDALVRKTAEGSMIMTSSGFLESVGSGSKISRKRRRQDSDASMIDFEPSMGTSSAAGTPLAAPSSPQSGPQSELANALPVIVRSLVTMWKQASIHLKQAIIILLKSLALVRYGGLADHLQQIEDPIADVLKSSLSGAPSASIGISASAGTLQIETLSLISAISETHASDALLPFLIALIPGVIVAVNDKNYKVSSEALAAVEQIVKALTPPRVTTASQDLIFQLEKLYDVSHSRITDTSADLEVRQRAIHVLGVLLARTSDEQGSAFLSFEKRSKGLVTLVDRLKNETTRLSAVRAIDDVAVLCSRKDDVDSNWVREVTAELGAQLRKSDRVLRSASLETLRSLSMNPNTRAHYDGETMKNLEECLIPLISVEDVHLLAPSLIIIAKLVPGNAQLLVNDGLVSAICSIVRTSLAGTVLKALLLLVKVIGEEGSGLTLMQNLLQDVGVNGDTSVVGRSIGTLLVHGGSNVGVRMEDFLSELQKTQDPQRQCLALAILGESALRLGASCSLTPNVFIPHFNSKSEKVRLASATALGNAAAGNVKAYLPTILGGLEKSDPQSYLLLHSVKELLQHPEMVRRDVAPSALKLWQALLVVSKEEDNRAMGAECVGRLALLDPPAYIPQFQEYLANGDAGIRSIVVSAFRFTLSDSRDVFNDVLRPLIVPLLVNMLSDRDLGNHRLALTTLNSAIHNKLALILPHLGELLPAVLGDTQIKPELIREVQMGPFKHKVDDGLELRKSAYETVYAALDTSFSLSHITELYSRILAGIDDEQDIRTICNLMTSKLITLAPEETQRHLDALSERYTAILNFKPKENAVKQEIEKAQEASTGVLKITRELSKAFPNAETMGDHHKWKAYMEMVRAQFGTQLSNLESEF"}},
  "note": "No constants are given. Whether binding was seen depends on the method and setting. Binding seen in cells or lysates may run through a third protein. These calls come from enrichment with a bait or labelling near it, and not all partners need be listed. For some of these results: No binding means not detected with the bait. For some of these results: Where a sequence is shown, tags or fusion partners need not be part of it.",
  "data": [
    {"target": "T1, CandA-C-GFP (A. nidulans) (UniProt Q5BAH2)", "T1 sequence": "B2 chain", "assay": "affinity purification with mass spectrometry; GFP-pulldown from fungal cell extracts of A. nidulans or A. fumigatus strains, LC-MS, MaxQuant LFQ and Perseus filtering against a GFP control", "values": [
      {"molecule": "CulA (A. nidulans)", "binding": "binds"},
      {"molecule": "CulC (A. nidulans)", "binding": "no binding"},
      {"molecule": "CulD (A. nidulans)", "binding": "no binding"},
      {"molecule": "B1", "binding": "binds"}
    ]},
    {"target": "CandA-C1-GFP (A. nidulans)", "assay": "affinity purification with mass spectrometry; GFP-pulldown from fungal cell extracts of A. nidulans or A. fumigatus strains, LC-MS, MaxQuant LFQ and Perseus filtering against a GFP control", "values": [
      {"molecule": "B2", "binding": "binds"},
      {"molecule": "B1", "binding": "binds"}
    ]},
    {"target": "T2, GFP-CandA-N (A. nidulans) (UniProt C8VP82)", "T2 sequence": "B1 chain", "assay": "affinity purification with mass spectrometry; GFP-pulldown from fungal cell extracts of A. nidulans or A. fumigatus strains, LC-MS, MaxQuant LFQ and Perseus filtering against a GFP control", "values": [
      {"molecule": "CulA (A. nidulans)", "binding": "binds"},
      {"molecule": "CulC (A. nidulans)", "binding": "no binding"},
      {"molecule": "CulD (A. nidulans)", "binding": "no binding"},
      {"molecule": "B2", "binding": "binds"}
    ]}
  ]
}
